PubChem BioAssay AID504764 | Drosophila RNAi Screening Center – 2011
Aim: 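Genes whose knock-down alters Notch-dependent transcription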 (primary screen). System: Drosophila Kc167 cells. Reagents: long dsRNA against Drosophila genes. Timing: about 5 days (4 days dsRNA, then 24 h after transfection). Conditions: transfection of constitutively active membrane-tethered Notch lacking the extracellular domain, read 24 h later. Measured: 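Light from a Notch-responsive E(spl)m3 luciferase reporter under active Notch, with control-promoter and no-Notch reporter wells to normalise; raw counts from paired wells a and b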. Scale: induced reporter light, run 1, well a and induced reporter light, run 1, well b: higher = more light from the Notch target reporter with active Notch; control promoter light, run 1, well a and control promoter light, run 1, well b: higher = more light from the viral control promoter (cell number, transfection, viability); uninduced reporter light, run 1, well a: higher = more light from the Notch target reporter without active Notch. Call rule: 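Wells with low control signal or poorly matching duplicates excluded; duplicates averaged; per source plate, z beyond ±2 for induced/control log2 ratio or beyond ±1.8 for induced/uninduced marks a hit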. Calls: active = modifier hit (raised or lowered Notch signal); inactive = not a hit.
The screen tested about 22,000 reagents; below is an unselected part of those that have a named target and a result. Of all reagents, 403 (1.9%) got an active call. 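Unnormalised raw counts per well; ratio z-scores behind the hit calls and whether each hit raises or lowers signal are not deposited.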 A number with no mark means an inactive call. The numbers tell different reagents against one gene apart. Names joined by + are all predicted targets of the reagent. Not stated in the record: the amount of reagent.

| induced reporter light, run 1, well a | induced reporter light, run 1, well b | control promoter light, run 1, well a | control promoter light, run 1, well b | uninduced reporter light, run 1, well a | target gene | dsRNA no. |
| --- | --- | --- | --- | --- | --- | --- |
| 1.64e5 | 2.21e5 | 1.69e5 | 2.07e5 | 14740 | CG3045 | 1 |
| 1.64e5 | 1.08e5 | 1.67e5 | 1.40e5 | 9550 | gkt (glaikit) | 1 |
| 52790 | 63035 | 84165 | 81400 | 4555 | CR18275 + CR18166 + CG32817 | 1 |
| 1.30e5 | 1.23e5 | 1.16e5 | 1.37e5 | 5235 | Src64B (Src oncogene at 64B) | 1 |
| 1.77e5 | 1.54e5 | 1.97e5 | 1.59e5 | 12425 | CG5280 | 1 |
| 1.60e5 | 1.57e5 | 2.40e5 | 2.78e5 | 14070 | Ttc26 (Tetratricopeptide repeat domain 26) | 1 |
| 2.01e5 | 1.85e5 | 1.74e5 | 1.77e5 | 13920 | bonsai | 1 |
| 1.16e5 | 1.27e5 | 86170 | 34115 | 10910 | Hsp27 (Heat shock protein 27) | 1 |
| 81840 | 76615 | 82305 | 56650 | 5885 | Desat2 (Desaturase 2) | 1 |
| 1.24e5 | 1.60e5 | 1.67e5 | 1.82e5 | 6355 | CG12017 | 1 |
| 74790 | 89475 | 1.09e5 | 1.06e5 | 5280 | CG30379 | 1 |
| 53610 | 46055 | 32420 | 26565 | 5465 | CG45105 | 1 |
| 1.73e5 | 1.44e5 | 1.57e5 | 1.59e5 | 9245 | CG45105 | 2 |
| 69080 | 65795 | 89740 | 89920 | 5690 | Cchl (Cytochrome c heme lyase) | 1 |
| 1.75e5 | 1.71e5 | 2.01e5 | 1.73e5 | 7610 | CG7579 | 1 |
| 74310 | 76655 | 53665 | 50345 | 5155 | Taf7 (TBP-associated factor 7) | 1 |
| 98670 | 1.08e5 | 90185 | 31580 | 10120 | nSMase (neutral sphingomyelinase) | 1 |
| 1.81e5 | 2.02e5 | 1.96e5 | 1.80e5 | 15430 | CG10300 | 1 |
| 1.23e5 | 1.03e5 | 99665 | 73320 | 8845 | CG31924 | 1 |
| 21675 | 10490 | 12650 | 15540 | 4700 | Tango8 (Transport and Golgi organization 8) | 1 |
